According to patent publication US20250092130A1:
Results are given in words; binding and its absence hold for the method and conditions named. Some binding calls cover weakened binding; strength is not graded here.

By UniProt entry, the sequences of proteins in these tests, tags left out. Where a name states a change or a piece, a line headed by the entry shows the natural chain unless it says otherwise.
UniProt P43630: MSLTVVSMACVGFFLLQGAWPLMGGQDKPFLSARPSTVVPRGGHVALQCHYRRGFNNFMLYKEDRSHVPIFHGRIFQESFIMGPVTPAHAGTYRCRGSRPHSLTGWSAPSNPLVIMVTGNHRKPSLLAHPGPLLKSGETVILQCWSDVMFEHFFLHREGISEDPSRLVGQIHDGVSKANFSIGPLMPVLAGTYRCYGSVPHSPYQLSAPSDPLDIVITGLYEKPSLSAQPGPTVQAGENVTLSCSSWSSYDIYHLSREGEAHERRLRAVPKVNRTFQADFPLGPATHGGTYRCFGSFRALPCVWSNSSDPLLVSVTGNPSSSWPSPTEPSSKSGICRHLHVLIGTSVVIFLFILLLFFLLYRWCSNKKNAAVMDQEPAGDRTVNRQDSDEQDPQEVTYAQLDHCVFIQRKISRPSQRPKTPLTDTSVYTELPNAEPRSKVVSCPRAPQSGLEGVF

B1: antibody 2B12 (antibody, V domains shown)
VH: QIQLVQSGPELKKPGETVRISCKASGYTFTTAGMQWVQKTPGKGLKWIGWINSHSGVPKYAEDFKGRFAFSLETSASTAYLQISTLKNEDTATYFCARGGDEGVMDYWGQGTSVTVS
VL: DIVMTQSHKFMSTSLGDRVSFTCKASQDVSTAVAWYQQKPGQSPKLLIYWTSTRHTGVPDRFTGSGSGTDYTLTISSVQAEDLALYYCQQHYSTPWTFGGGTKLEIK
B2: antibody 12B11 (antibody, IgG1, V domains shown)
VH: QLVQSGPELKNPGETVKISCKASGYTFTNYGMNWVKQAPGKGLKWMGWINTYTGEPTYADDFKGRFAFSLETSASTAYLQINNLKNEDTATYFCAHGPWLAYWGQGTLVTVS
VL: DIKMTQSPSSMYASLGERVTITCKASQDINVYLSWFQQKPGKSPKTLIYRAIRLVDGVPSRFSGSGSGQDYSLTISSLDYEDMGIYYCLQYDELPYTFGGGTKLEIE

What was measured:
[1] = molecular target: KIR3DL2 mutant having P14S, S15A and H23S substitutions (human) (UniProt P43630); test: binding to KIR3DL2 mutants
[2] = molecular target: KIR3DL2 mutant M11A4 (E130S, H131S, R145S) (human) (UniProt P43630); test: binding to cells transfected with KIR3DL2 mutants

| Binder | binding [1] | binding [2] |
| --- | --- | --- |
| B1 | binds | – |
| B2 | – | binds |
